Some of the results follow. Repeats in this data set agree poorly, so a single value says little.
molecular target: HuR (ELAVL1) - TNFalpha ARE RNA complex (UniProt Q15717); assay: AlphaScreen HuR-RNA complex signal Z-score relative to positive (Bi-TNF, DMSO) controls (Z-score (SD units of positive control)); higher = more complex signal; details: screen stage: primary screen; compound concentration: 25 nM

Sequences of proteins named here, by UniProt entry; tags and fusion partners are left off.
UniProt Q15717, whole entry: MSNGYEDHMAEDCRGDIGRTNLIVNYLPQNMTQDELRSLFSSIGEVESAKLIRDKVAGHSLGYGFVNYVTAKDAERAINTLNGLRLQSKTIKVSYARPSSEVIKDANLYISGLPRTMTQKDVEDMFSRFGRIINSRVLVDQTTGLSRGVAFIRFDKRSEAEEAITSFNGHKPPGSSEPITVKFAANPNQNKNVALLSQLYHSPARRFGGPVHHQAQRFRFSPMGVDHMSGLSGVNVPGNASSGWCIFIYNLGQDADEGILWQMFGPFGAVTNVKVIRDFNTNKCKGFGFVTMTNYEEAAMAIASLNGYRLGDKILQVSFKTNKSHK

Question: How did the “AlphaScreen HuR-RNA complex signal Z-score” value turn out when COC(=O)C[C@H]1C2(C)CC34OC5(C)O[C@@]6([C@H](OC)C(OC(=O)C(C)C)[C@]7(C)C(/C(=C(/OC)C(C)C)C(=O)O[C@H]7c7ccoc7)[C@@]6(O5)[C@H](OC)[C@@]3(OC)C2OC(C)=O)[C@]14C (some centres not stated) was run?
Answer: 0.271

Question: How did the “AlphaScreen HuR-RNA complex signal Z-score” value turn out when COC(=O)[C@H]1[C@H]2C[C@H]3c4[nH]c5cc(OC)ccc5c4CCN3C[C@H]2C[C@@H](OC(=O)c2cc(OC)c(OC)c(OC)c2)[C@@H]1OC was run?
Answer: 2.15

Question: How did the “AlphaScreen HuR-RNA complex signal Z-score” value turn out when CC1=CCc2c(cc3oc(C)cc(=O)c3c2O)OC1 was run?
Answer: 2

Question: For CC1(C)O[C@@H]2C[C@H]3[C@@H]4C[C@H](F)C5=CC(=O)CC[C@]5(C)[C@H]4[C@@H](O)C[C@]3(C)[C@]2(C(=O)CO)O1, which “AlphaScreen HuR-RNA complex signal Z-score” value is on record?
Answer: 3.96

Question: With CCC(=O)OCC(=O)[C@@]1(OC(=O)CC)[C@@H](C)C[C@H]2[C@@H]3CCC4=CC(=O)C=C[C@]4(C)[C@@]3(F)[C@@H](O)C[C@@]21C as the compound, how does the “AlphaScreen HuR-RNA complex signal Z-score” value read?
Answer: 1.28

Question: Which “AlphaScreen HuR-RNA complex signal Z-score” value does the source give for CC1(C)CC2C1CCC1(C)OC1CCC2(C)O (configuration not stated) here?
Answer: 2.51

Question: Which “AlphaScreen HuR-RNA complex signal Z-score” value does the source give for O[n+]1ccccc1S.O[n+]1ccccc1S.[Zn+2] here?
Answer: -3.13

Question: With NNC(=O)c1ccncc1 as the compound, how does the “AlphaScreen HuR-RNA complex signal Z-score” value read?
Answer: -0.15

Question: How did the “AlphaScreen HuR-RNA complex signal Z-score” value turn out when CCN1CCCC1CNC(=O)c1cc(S(N)(=O)=O)ccc1OC (configuration not stated) was run?
Answer: 1.28

Question: O=C(O)c1cc2cc(F)ccc2[nH]1 was tested. Which “AlphaScreen HuR-RNA complex signal Z-score” value did it give?
Answer: 4.62

Question: O=C(O)c1cccnc1 was tested. Which “AlphaScreen HuR-RNA complex signal Z-score” value did it give?
Answer: -1.82

Question: With CCCCc1oc2ccccc2c1C(=O)c1cc(I)c(OCCN(CC)CC)c(I)c1 as the compound, how does the “AlphaScreen HuR-RNA complex signal Z-score” value read?
Answer: 4.5

Question: How did the “AlphaScreen HuR-RNA complex signal Z-score” value turn out when Cc1cccc(N(C)C(=S)Oc2ccc3ccccc3c2)c1 was run?
Answer: -0.736

Question: With Nc1ccc(S(=O)(=O)O)cc1.Nc1ccc(S(=O)(=O)O)cc1.[Zn] as the compound, how does the “AlphaScreen HuR-RNA complex signal Z-score” value read?
Answer: 0.493

Question: With C#C[C@]1(O)CC[C@H]2[C@@H]3CCC4=Cc5oncc5C[C@]4(C)[C@H]3CC[C@@]21C as the compound, how does the “AlphaScreen HuR-RNA complex signal Z-score” value read?
Answer: -4.76

Question: For O=C(Nc1ccc([N+](=O)[O-])cc1Cl)c1cc(Cl)ccc1O, which “AlphaScreen HuR-RNA complex signal Z-score” value is on record?
Answer: 0.578

Question: CCOc1ccc(Cc2nccc3cc(OCC)c(OCC)cc23)cc1OCC was tested. Which “AlphaScreen HuR-RNA complex signal Z-score” value did it give?
Answer: 2.58

Question: CC12CC3CC(C)(C1)CC(N)(C3)C2 was tested. Which “AlphaScreen HuR-RNA complex signal Z-score” value did it give?
Answer: 0.412

Question: With CC(C)=CCc1c(O)cc2oc(C)cc(=O)c2c1O as the compound, how does the “AlphaScreen HuR-RNA complex signal Z-score” value read?
Answer: 2.4

Question: How did the “AlphaScreen HuR-RNA complex signal Z-score” value turn out when COc1ccc(-c2cc(=O)c3c(OC)c(OC)c(OC)c(OC)c3o2)cc1 was run?
Answer: 0.835

Question: CSCCC(N)C(=O)NC(CC(C)C)C(=O)NC(Cc1ccccc1)C(=O)O (configuration not stated) was tested. Which “AlphaScreen HuR-RNA complex signal Z-score” value did it give?
Answer: 0.887

Question: CCC[C@@H]1C[C@@H](C(=O)N[C@@H]([C@H]2O[C@H](SC)[C@H](O)[C@@H](O)[C@H]2O)[C@@H](C)O)N(C)C1 was tested. Which “AlphaScreen HuR-RNA complex signal Z-score” value did it give?
Answer: 3.46

Question: C=C1C(N)CC2CC1C2(C)C (stereo not drawn) [3-AMINO-beta-PINENE] was tested. Which “AlphaScreen HuR-RNA complex signal Z-score” value did it give?
Answer: 2.48

Question: For CN1CCCN=C1/C=C/c1cccs1, which “AlphaScreen HuR-RNA complex signal Z-score” value is on record?
Answer: 7.1

Question: COc1ccc(-c2cc(=O)c3c(OC)c(OC)c(OC)c(OC)c3o2)cc1OC was tested. Which “AlphaScreen HuR-RNA complex signal Z-score” value did it give?
Answer: 1.34

Question: With CCCCOc1ccc(C(=O)CCN2CCCCC2)cc1 as the compound, how does the “AlphaScreen HuR-RNA complex signal Z-score” value read?
Answer: -2.84

Question: For COc1cccc(O)c1O, which “AlphaScreen HuR-RNA complex signal Z-score” value is on record?
Answer: 0.803

Question: For C=C1C(=O)O[C@H]2[C@H]1CC/C(C)=C/CC[C@@]1(C)O[C@@H]21, which “AlphaScreen HuR-RNA complex signal Z-score” value is on record?
Answer: 1.46

Question: COc1ccc(CCC(=O)c2c(O)cc(O[C@@H]3O[C@H](CO)[C@@H](O)[C@H](O)[C@H]3O[C@@H]3O[C@@H](C)[C@H](O)[C@@H](O)[C@H]3O)cc2O)cc1O was tested. Which “AlphaScreen HuR-RNA complex signal Z-score” value did it give?
Answer: 1.52

Question: CC(C)(C)CC(C)(C)c1ccc(OCCOCC[N+](C)(C)Cc2ccccc2)cc1 was tested. Which “AlphaScreen HuR-RNA complex signal Z-score” value did it give?
Answer: 0.366

Question: For CC(C)(C)NC(=O)[C@H]1CC[C@H]2[C@@H]3CC[C@H]4NC(=O)C=C[C@]4(C)[C@H]3CC[C@]12C, which “AlphaScreen HuR-RNA complex signal Z-score” value is on record?
Answer: 2.35

Question: How did the “AlphaScreen HuR-RNA complex signal Z-score” value turn out when C=CC1=C(C)/C(=C/c2[nH]c(Cc3[nH]c(/C=C4\NC(=O)C(C)=C4C=C)c(C)c3CCC(=O)O)c(CCC(=O)O)c2C)NC1=O was run?
Answer: 1.49

Question: For Nc1nc(N)c2nc(-c3ccccc3)c(N)nc2n1, which “AlphaScreen HuR-RNA complex signal Z-score” value is on record?
Answer: -0.891

Question: Which “AlphaScreen HuR-RNA complex signal Z-score” value does the source give for C=C1CC[C@H](O)C/C1=C/C=C1\CCC[C@]2(C)[C@@H]([C@H](C)/C=C/[C@H](C)C(C)C)CC[C@@H]12 here?
Answer: 1.15

Question: Which “AlphaScreen HuR-RNA complex signal Z-score” value does the source give for CC(C)=CCCC1(C)C=Cc2c(O)c3c(c(CC=C(C)C)c2O1)OC12C(=CCCC1C(C)(C)O[C@@]2(C/C=C(\C)C(=O)O)C(=O)O)C3=O (some centres not stated) here?
Answer: 1.19

Question: CC1=C(/C=C/C(C)=C/C=C/C(C)=C/C=C/C=C(C)/C=C/C=C(C)/C=C/C(=O)[C@]2(C)C[C@@H](O)CC2(C)C)C(C)(C)C[C@H](O)C1 was tested. Which “AlphaScreen HuR-RNA complex signal Z-score” value did it give?
Answer: 1.13

Question: Which “AlphaScreen HuR-RNA complex signal Z-score” value does the source give for C[C@H]1[C@H]2CC[C@H]3[C@@H]4CC=C5C[C@@H](N(C)C)CC[C@]5(C)[C@H]4CC[C@]23CN1C here?
Answer: 0.922

Question: How did the “AlphaScreen HuR-RNA complex signal Z-score” value turn out when C[N+](C)(C)C[C@H](O)CC(=O)[O-] was run?
Answer: 0.81

Question: CC(C)=CCC[C@@H](C)[C@@H]1CC[C@]2(C)C3=C(CC[C@@]12C)[C@@]1(C)CC[C@H](O)C(C)(C)[C@@H]1CC3 was tested. Which “AlphaScreen HuR-RNA complex signal Z-score” value did it give?
Answer: -3.12

Question: CC(C)NCC(O)COc1cccc2[nH]ccc12 (configuration not stated) was tested. Which “AlphaScreen HuR-RNA complex signal Z-score” value did it give?
Answer: 1.04

Question: For OC(CCN1CCCC1)(c1ccccc1)C1CCCCC1 (configuration not stated), which “AlphaScreen HuR-RNA complex signal Z-score” value is on record?
Answer: 7.17

Question: Which “AlphaScreen HuR-RNA complex signal Z-score” value does the source give for CC(=O)/C(=C\c1ccccc1)CC(=O)O here?
Answer: 1.88

Question: CC(CN(C)C)CN1c2ccccc2CCc2ccccc21 (configuration not stated) was tested. Which “AlphaScreen HuR-RNA complex signal Z-score” value did it give?
Answer: 1.05

Question: How did the “AlphaScreen HuR-RNA complex signal Z-score” value turn out when COC(=O)[C@@]1(C)CCC[C@]2(C)c3ccc(O)c(C(C)C)c3CCC12 (some centres not stated) was run?
Answer: 0.744

Question: How did the “AlphaScreen HuR-RNA complex signal Z-score” value turn out when O=C(O)CCCCCCCC(O)C(O)CCCCCCO (configuration not stated) was run?
Answer: 0.743

Question: Which “AlphaScreen HuR-RNA complex signal Z-score” value does the source give for CN(Cc1cc(Br)cc(Br)c1N)C1CCCCC1 here?
Answer: 1.41

Question: C[C@H](CS)C(=O)N1CCC[C@H]1C(=O)O was tested. Which “AlphaScreen HuR-RNA complex signal Z-score” value did it give?
Answer: -0.272

Reference: the supplement of paper PMC3741180, “A Novel High Throughput Biochemical Assay to Evaluate the HuR Protein-RNA Complex Formation” (PLoS ONE, 2013)
